No constants are given. Whether binding was seen depends on the method and setting. For some assays here: Binding seen in cells or lysates may run through a third protein. Some results given as binding are weak or reduced against the parent protein; the word gives no strength. For some assays here: Where a sequence is shown, tags or fusion partners need not be part of it.

Amino acid sequences for entries named in this document (tags omitted). A change or cut given only in a name is not applied to a line headed by its entry.
UniProt P08621: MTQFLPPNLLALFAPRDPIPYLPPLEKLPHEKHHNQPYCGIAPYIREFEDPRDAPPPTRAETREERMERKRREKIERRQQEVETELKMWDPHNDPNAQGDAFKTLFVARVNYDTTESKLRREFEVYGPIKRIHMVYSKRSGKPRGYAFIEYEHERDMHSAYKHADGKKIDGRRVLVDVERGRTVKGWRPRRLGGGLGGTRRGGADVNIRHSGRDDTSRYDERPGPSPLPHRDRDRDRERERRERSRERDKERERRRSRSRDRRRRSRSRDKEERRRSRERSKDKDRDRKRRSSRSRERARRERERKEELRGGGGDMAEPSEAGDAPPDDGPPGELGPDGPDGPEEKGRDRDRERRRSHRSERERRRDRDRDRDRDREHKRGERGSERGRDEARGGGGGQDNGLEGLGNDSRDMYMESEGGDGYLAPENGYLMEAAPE
UniProt P09234: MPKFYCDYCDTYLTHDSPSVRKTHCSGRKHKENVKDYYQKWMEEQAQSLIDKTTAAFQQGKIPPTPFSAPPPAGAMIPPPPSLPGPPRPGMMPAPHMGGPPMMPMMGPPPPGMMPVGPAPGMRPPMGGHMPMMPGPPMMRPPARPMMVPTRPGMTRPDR
UniProt P09012: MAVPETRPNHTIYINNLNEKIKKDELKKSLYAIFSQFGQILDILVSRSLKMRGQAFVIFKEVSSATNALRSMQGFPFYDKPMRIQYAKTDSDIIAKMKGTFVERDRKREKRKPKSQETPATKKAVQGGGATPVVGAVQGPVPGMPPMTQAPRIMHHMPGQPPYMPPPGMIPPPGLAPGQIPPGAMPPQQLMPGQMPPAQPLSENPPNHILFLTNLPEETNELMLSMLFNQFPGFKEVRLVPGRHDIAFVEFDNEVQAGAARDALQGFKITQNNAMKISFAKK

One test has as its target T1, HA-tagged SRSF5 (human) (UniProt Q13243).
T1 sequence: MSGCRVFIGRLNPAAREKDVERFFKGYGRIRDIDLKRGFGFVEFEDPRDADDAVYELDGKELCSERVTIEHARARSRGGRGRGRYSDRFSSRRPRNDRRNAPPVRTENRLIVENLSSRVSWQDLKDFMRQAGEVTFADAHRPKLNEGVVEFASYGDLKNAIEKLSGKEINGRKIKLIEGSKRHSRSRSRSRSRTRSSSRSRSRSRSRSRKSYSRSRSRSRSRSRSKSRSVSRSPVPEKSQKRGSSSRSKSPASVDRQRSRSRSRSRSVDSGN
In words: co-IP; HEK293 cells cotransfected with HA-tagged SRSF5 and Flag-U1A, Flag-U1C or Flag-U1-70k.

In test [1] the target is T2, purified recombinant SRSF5-Flag (human) (UniProt Q13243).
T2 sequence: T1 sequence
In words: pull-down; purified SRSF5-Flag added to srsf5-/- HEK293 cell lysate 1 h at 4 °C, Flag-M2 affinity beads 1 h at 4 °C; washes at the low end of the salt series (from 200 mM NaCl); immunoblot for U1A and U1-70K; only the target purified. (Immunoblotting shows a protein as a band on a membrane.)

The target in test [2] is T3, serine and arginine-rich splicing factor 5 (SRSF5), endogenous (human (endogenous in A549 or HEK293)) (UniProt Q13243).
T3 sequence: T1 sequence
In words: proximity ligation.

The target in test [3] is T2, purified recombinant SRSF5-Flag (human). The test is described as follows: pull-down; as a4, salt sensitivity test: washes at 300-400 mM NaCl; only the target purified.
Test [4] concerns the target T3, serine and arginine-rich splicing factor 5 (SRSF5), endogenous (human (endogenous in A549 or HEK293)). The test is described as follows: co-IP.
Test [5] has as its target GST-U1-70K-His (human (amplified from A549 cells)) (UniProt P08621). In words: condition: 300 ng SRSF5-Flag with 150 ng GST-tagged protein in 300 µL; pull-down; GST pulldown: 300 ng purified SRSF5-Flag with 150 ng glutathione-bound GST-tagged protein, 300 µL, 1 h at 4 °C; 50 mM Tris pH 7.5, 200 mM NaCl, 10% glycerol, 0.5% Triton-X-100, RNaseA; blot with anti-Flag or anti-His; both purified.

In test [6] the target is GST-U1C-His (human (amplified from A549 cells)) (UniProt P09234). The description is as above.

Regarding Flag-U1A (from UniProt P09012 1-282), in the test with HA-tagged SRSF5 (human), the binding result was “binds”.
For the molecule Flag-U1C (from UniProt P09234 1-159), in the test with HA-tagged SRSF5 (human), the binding result is “no binding”.
Turning to “U1A, core protein component of U1 snRNP, endogenous (from UniProt P09012 1-282)”, the binding result in test [1], in test [2], in test [3] and in test [4] was “binds” each time.

B1: purified recombinant SRSF5-Flag (natural protein, human, UniProt Q13243 1-272, looked up)
chain: T1 sequence
notes: also called hSRSF5-Flag; Flag-SRSF5
Consider B1, for which the binding result in test [5] and in test [6] was “no binding” in each case.

The values above are taken from PMC9731694, “SRSF5‐Mediated Alternative Splicing of M Gene is Essential for Influenza A Virus Replication: A Host‐Directed Target Against Influenza Virus” (Advanced Science, 2022).
